Source: US20210177823A1, “NEUROMODULATING COMPOSITIONS AND RELATED THERAPEUTIC METHODS FOR THE TREATMENT OF CANCER” (Flagship Pioneering Innovations V, Inc., priority 2016, published 2021)
Some entries share one result that the patent states for a list of compounds. At least one compound was matched to its structure with a doubt left.

Tested on: pancreatic cancer cell lines (CFPAC, PANC-1, PL45, ASPC-1, CAPAN-1, CAPAN-2)
Experiment: Cancer cell growth in low-serum spheroid culture, Cell Titer Glo readout
Format: cell-based
Details: PANC-1, PL45, ASPC-1, and CAPAN-2

SMILES | increase of growth rate compared to untreated control
Cc1nc(N)sc1CCN [amthamine] | at least 5%
NCCc1ccccn1 [2-pyridylethylamine] | at least 5%
CN1CCN(c2cc(-c3ccccc3)nc(N)n2)CC1 [VUF 10460] | at least 5%
